Source: PMC11998537
No constants are given. Whether binding was seen depends on the method and setting. In cells and extracts the contact can be indirect. Some entries that bind do so weakly or less than the wild type. For some of these results: Tags and fused reporters may be left off the sequences shown.

Sequences of proteins named here, by UniProt entry; tags and fusion partners are left off.
UniProt P03431: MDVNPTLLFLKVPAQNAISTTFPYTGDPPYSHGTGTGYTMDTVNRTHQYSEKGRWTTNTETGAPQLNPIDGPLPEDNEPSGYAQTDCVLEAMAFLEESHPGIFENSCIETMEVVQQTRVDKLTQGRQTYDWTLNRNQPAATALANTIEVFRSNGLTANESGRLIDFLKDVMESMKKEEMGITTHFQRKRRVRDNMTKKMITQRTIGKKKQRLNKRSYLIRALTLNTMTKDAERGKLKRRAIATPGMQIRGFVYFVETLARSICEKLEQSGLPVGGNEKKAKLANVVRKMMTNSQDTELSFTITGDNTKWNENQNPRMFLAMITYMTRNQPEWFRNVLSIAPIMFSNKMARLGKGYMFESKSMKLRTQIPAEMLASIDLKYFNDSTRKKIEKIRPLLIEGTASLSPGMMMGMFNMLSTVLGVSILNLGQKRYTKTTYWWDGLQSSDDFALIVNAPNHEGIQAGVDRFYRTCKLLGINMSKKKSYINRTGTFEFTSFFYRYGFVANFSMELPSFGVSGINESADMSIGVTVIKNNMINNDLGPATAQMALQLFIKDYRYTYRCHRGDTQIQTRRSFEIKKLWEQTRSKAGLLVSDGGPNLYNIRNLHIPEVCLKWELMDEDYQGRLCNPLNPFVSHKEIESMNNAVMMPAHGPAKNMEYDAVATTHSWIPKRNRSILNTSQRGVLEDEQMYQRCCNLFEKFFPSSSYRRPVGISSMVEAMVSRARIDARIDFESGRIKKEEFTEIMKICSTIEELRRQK
UniProt Q16531: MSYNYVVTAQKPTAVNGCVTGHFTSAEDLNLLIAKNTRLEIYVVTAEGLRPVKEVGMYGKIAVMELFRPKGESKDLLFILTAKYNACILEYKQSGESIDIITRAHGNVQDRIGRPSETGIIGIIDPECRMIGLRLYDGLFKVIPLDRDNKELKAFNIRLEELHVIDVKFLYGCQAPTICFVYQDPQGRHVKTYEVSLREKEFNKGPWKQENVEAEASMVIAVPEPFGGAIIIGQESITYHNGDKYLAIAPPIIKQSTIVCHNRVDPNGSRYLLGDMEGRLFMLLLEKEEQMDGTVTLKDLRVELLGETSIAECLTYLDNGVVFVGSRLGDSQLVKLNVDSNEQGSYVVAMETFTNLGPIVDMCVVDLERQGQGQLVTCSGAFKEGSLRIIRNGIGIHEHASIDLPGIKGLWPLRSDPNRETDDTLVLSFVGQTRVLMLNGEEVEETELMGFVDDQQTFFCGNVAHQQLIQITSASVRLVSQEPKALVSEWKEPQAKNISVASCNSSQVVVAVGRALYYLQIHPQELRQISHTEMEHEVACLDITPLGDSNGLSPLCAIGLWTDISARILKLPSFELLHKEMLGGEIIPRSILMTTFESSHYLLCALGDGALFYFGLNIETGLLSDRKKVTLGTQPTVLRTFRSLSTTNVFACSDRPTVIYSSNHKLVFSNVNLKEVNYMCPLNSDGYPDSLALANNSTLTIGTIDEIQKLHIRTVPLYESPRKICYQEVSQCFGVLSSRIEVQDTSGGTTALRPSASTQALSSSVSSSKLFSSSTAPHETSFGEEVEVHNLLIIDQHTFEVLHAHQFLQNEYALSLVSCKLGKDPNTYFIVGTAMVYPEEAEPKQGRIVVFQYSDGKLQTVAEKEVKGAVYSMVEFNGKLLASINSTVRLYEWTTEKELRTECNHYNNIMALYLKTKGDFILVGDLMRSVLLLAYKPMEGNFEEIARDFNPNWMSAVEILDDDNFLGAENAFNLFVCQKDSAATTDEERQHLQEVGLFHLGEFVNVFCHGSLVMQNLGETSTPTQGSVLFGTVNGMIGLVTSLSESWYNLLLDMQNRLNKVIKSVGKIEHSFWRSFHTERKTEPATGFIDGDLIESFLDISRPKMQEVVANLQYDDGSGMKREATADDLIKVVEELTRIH
UniProt Q13620: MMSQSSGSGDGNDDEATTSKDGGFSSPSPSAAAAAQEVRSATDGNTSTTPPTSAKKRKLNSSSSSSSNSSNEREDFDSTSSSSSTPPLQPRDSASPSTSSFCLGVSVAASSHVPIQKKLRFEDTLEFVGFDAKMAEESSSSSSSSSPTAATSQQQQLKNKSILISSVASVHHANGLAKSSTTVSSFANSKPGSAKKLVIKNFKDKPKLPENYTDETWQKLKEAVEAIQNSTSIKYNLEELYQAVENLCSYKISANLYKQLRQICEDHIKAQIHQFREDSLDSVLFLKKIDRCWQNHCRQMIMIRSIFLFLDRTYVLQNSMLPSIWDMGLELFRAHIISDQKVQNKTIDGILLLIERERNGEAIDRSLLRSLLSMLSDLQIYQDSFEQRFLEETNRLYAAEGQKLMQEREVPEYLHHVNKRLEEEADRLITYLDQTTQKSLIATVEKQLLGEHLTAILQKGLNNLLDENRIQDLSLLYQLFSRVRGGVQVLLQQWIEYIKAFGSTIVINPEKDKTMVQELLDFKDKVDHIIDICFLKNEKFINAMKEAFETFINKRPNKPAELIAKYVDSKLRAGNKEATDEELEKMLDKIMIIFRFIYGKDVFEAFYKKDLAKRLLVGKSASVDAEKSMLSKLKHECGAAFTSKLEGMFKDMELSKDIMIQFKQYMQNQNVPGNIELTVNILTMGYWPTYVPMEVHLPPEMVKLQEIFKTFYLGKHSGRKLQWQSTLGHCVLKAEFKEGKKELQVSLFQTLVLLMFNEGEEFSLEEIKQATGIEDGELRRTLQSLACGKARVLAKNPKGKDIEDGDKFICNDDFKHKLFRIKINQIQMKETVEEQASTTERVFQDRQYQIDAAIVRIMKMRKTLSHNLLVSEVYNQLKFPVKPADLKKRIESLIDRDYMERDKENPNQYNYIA
UniProt Q13619: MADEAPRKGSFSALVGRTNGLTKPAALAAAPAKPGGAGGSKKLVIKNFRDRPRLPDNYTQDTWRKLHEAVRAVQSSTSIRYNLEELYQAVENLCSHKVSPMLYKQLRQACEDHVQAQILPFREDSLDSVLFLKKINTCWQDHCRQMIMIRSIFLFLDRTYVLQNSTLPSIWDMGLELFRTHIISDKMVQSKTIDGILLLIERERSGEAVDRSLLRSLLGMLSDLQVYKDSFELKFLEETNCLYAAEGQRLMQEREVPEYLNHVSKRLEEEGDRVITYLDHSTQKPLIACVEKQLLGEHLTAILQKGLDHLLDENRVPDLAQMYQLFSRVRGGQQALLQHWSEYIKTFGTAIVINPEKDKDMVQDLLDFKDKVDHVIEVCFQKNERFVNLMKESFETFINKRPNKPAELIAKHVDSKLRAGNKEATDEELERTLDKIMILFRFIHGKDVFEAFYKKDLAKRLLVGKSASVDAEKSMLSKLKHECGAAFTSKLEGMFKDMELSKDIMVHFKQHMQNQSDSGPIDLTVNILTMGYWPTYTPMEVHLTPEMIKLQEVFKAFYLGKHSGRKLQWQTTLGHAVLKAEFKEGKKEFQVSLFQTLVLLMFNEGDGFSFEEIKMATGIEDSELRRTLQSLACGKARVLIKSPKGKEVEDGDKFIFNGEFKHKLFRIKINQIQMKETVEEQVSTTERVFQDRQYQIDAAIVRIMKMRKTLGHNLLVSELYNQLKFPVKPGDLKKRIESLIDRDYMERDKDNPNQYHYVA

How the values were obtained:
[1] = molecular target: T1, Flag-tagged DCAF7, stably expressed in HEK293T (293T-DCAF7 cells) (human) (UniProt P61962); assay: co-IP
T1 sequence: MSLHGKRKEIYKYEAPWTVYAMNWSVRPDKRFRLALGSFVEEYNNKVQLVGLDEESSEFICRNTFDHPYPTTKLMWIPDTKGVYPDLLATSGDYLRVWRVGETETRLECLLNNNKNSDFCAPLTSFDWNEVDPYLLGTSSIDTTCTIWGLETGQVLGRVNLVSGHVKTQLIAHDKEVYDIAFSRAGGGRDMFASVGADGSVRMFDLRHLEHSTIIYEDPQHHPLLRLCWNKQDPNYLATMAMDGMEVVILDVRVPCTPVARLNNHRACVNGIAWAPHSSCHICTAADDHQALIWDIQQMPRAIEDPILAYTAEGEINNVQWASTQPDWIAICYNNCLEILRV

[2] = molecular target: T2, DCAF7 as transfected for Fig. 8A and B (human) (UniProt P61962); assay: co-IP; HEK293T transfected with the indicated plasmids for 48 h, lysed and immunoprecipitated with anti-Flag antibody; immunoblotting (Fig. 8A and B)
T2 sequence: T1 sequence

Substance	binding [1]	binding [2]
PB1 made during H1N1 infection (from UniProt P03431 1-757)	binds	–
Myc-DDB1 (DNA damage-binding protein-1) (from UniProt Q16531 1-1140)	–	binds
HA-CUL4B (from UniProt Q13620 1-913)	–	binds
CUL4A (from UniProt Q13619 1-759)	–	binds
